No constants are given. Whether binding was seen depends on the method and setting. Some entries that bind do so weakly or less than the wild type.
Key:
[1] = biological target: Caprolactamase subunit α (CapA) from Pseudomonas jessenii GO3 (Pseudomonas jessenii GO3); experiment: crystal structure; co-purified CapAB, 5.1 mg/mL; crystal from 0.02 M Na/K phosphate, 0.1 M Bis-Tris propane pH 7.5, 20% PEG3350, 294 K; 4.0 Å, molecular replacement; two CapAB dimers in the asymmetric unit; both purified
[2] = biological target: Caprolactamase subunit α (CapA) from Pseudomonas jessenii GO3 (Pseudomonas jessenii GO3); experiment: co-purification by His-tag affinity chromatography; CapA with C-terminal His tag and untagged CapB co-expressed in E. coli C41(DE3); cell-free extract incubated with Ni-NTA resin 1.5 h at 4°C in AB buffer (50 mM ammonium bicarbonate-NaOH pH 8.0, 10 mM MgCl2, 5% glycerol), washed with 20 mM imidazole, eluted with 300 mM imidazole; SDS-PAGE
[3] = biological target: Caprolactamase subunit α (CapA) from Pseudomonas jessenii GO3 (Pseudomonas jessenii GO3); experiment: dynamic light scattering; purified CapAB after gel filtration (20 mM Tris-HCl pH 7.5, 150 mM NaCl, 10 mM MgCl2, 2% glycerol), 20°C; both purified

Sequences of proteins named here, by UniProt entry; tags and fusion partners are left off.
UniProt A0A2W0FH34: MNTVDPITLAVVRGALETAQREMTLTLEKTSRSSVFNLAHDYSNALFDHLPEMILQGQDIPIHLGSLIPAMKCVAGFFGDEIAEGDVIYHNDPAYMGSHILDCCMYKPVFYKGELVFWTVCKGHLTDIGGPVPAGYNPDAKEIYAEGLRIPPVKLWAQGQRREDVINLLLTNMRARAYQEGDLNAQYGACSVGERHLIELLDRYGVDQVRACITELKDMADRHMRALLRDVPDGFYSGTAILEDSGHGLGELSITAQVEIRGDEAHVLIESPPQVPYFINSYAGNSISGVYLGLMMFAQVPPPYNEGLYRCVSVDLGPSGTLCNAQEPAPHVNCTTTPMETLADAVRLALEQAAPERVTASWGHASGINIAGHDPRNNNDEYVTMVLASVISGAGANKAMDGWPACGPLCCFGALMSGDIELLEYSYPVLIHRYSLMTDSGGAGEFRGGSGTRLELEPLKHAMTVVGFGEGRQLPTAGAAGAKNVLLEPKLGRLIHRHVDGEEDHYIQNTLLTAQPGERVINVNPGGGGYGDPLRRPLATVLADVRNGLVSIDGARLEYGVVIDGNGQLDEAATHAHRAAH

Measured: binding

Caprolactamase subunit β (CapB) from Pseudomonas jessenii GO3 (from UniProt A0A2W0FH34 1-581)
binds: all assays above
